{"source": "patent EP3967307B1", "about": "“PIM KINASE INHIBITORS TO AUGMENT THE EFFICACY OF ANTI-CD20 ANTIBODY-BASED THERAPIES FOR USE IN THE TREATMENT OF HEMATOLOGIC MALIGNANCIES” (dated 2026)", "system": "miR-222", "assay": "miR-222 expression by qPCR after MYC inhibition", "conditions": "DHL4 cells, 50µM, 24 hours, vs DMSO, qPCR 2^-ΔΔCT", "note": "The structures given here were assigned with low confidence; some may be wrong.", "data": [{"smiles": "CCc1ccc(C=C2SC(=S)NC2=O)cc1", "values": [{"measurement": "miR-222 expression", "result": "markedly decreased levels of miR-222"}]}]}
